Measured values taken from US20060100431A1, “Biologically active compounds” (Amura Therapeutics Limited, priority 2002, published 2006).
Some results were stated once for a whole list of compounds, not compound by compound. Some compounds share one range, which may span the group rather than tell each member.

molecular target: T1, human cathepsin K (Homo sapiens, UniProt P43235); assay: Cathepsin K peptidase activity assay (Ki); format: biochemical
T1 construct: Dr. Boris Turk (Josef Stefan Institute, Ljubljana, Slovenia)
T1 sequence (P43235 115-329): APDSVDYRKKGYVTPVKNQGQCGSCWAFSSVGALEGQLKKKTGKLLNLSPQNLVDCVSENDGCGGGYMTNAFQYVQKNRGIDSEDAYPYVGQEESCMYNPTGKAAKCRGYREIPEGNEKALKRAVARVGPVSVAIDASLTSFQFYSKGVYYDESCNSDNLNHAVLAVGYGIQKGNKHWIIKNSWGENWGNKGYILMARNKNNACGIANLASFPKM
Protocol: Unless otherwise stated, all general chemicals and biochemicals were purchased from either the Sigma Chemical Company, Poole, Dorset, U.K or from Fisher Scientific UK, Loughborough, Leicestershire, U.K. Absorbance assays were carried out in flat-bottomed 96-well plates (Spectra; Greiner Bio-One Ltd., Stonehouse, Gloucestershire, U.K.) using a SpectraMax PLUS384 plate reader (Molecular Devices, Crawley, U.K.). […] Fluorescence assays were monitored using a SpectraMax Gemini fluorescence plate reader (Molecular Devices). For substrates employing either a 7-amino-4-methylcoumarin (AMC) or a 7-amino-4-trifluoromethylcoumarin (AFC) fluorophore, assays were monitored at an excitation wavelength of 365 nm and an emission wavelength of 450 nm and the fluorescence plate reader calibrated with AMC. For substrates employing a 3-amino-benzoyl (Abz) fluorophore, assays were monitored at an excitation wavelength of 310 nm and an emission wavelength of 445 nm; the fluorescence plate reader calibrated with 3-amino-benzamide (Fluka). Unless otherwise indicated, all the peptidase substrates were purchased from Bachem UK, St Helens, Merseyside, UK. […] Hydroxyethylpiperazine ethanesulfonate (HEPES), tris-hydroxylmethyl aminomethane (tris) base, bis-tris-propane and all the biological detergents (e.g. CHAPS, zwittergents, etc.) were purchased from CN Biosciences UK, Beeston, Nottinghamshire, U.K. Glycerol was purchased from Amersham Pharmacia Biotech, Little Chalfont, Buckinghamshire, U.K. Stock solutions of substrate or inhibitor were made up to 10 mM in 100% dimethylsulfoxide (DMSO) (Rathburns, Glasgow, U.K.) and diluted as appropriately required. In all cases the DMSO concentration in the assays was maintained at less than 1% (vol./vol.).
Enzyme was added as required to initiate the reaction and the activity, as judged by the change in fluorescence upon conversion of substrate to product, was monitored over time. All assays were carried out at 25±1° C.
Bovine cathepsin S, human cathepsin L, human cathepsin H and human cathepsin B were obtained from CN Biosciences. Recombinant human cathepsin S, human cathepsin K and human cathepsin X were obtained from Dr. Boris Turk (Josef Stefan Institute, Ljubljana, Slovenia). Unless otherwise stated, all peptidase activity assays were carried out in 10 mM bis-tris-propane (BTP), pH 6.5 containing 1 mM EDTA, 5 mM 2-mercaptoethanol and 1 mM CaCl2.
The apparent inhibition constant (Ki) for each compound was determined on the basis that inhibition was reversible and occurred by a pure-competitive mechanism. […] [formula]
[formula] Ki^app=Ki(1+[So]/KM^app) (4)
Curves were fitted by non-linear regression analysis (Prism) using a fixed value for the enzyme concentration.

Row | Compound | Ki, inhibitors of cathepsin K [nM]
1 | CC(=O)NCC(=O)N1CC(=O)[C@@H]2[C@H]1CCN2C(=O)[C@H](CC(C)C)NC(=O)c1ccc(N(C)C)cc1 [Example 199, (3aR,6aS)-N-{(1S)-1-[4-(2-Acetylamino-acetyl)-6-oxo-hexahydro-pyrrolo[3,2-b]pyrrole-1-carbonyl]-3-methyl-butyl}-4-dimethylamino-benzamide] | 1 to 5000
2 | CC(C)C[C@H](NC(=O)c1ccc2c(c1)CCCN2)C(=O)N1CC[C@@H]2[C@H]1C(=O)CN2C(=O)c1ccccc1 [Example 87, (3aR,6aS)-1,2,3,4-Tetrahydro-quinoline-6-carboxylic acid [(1S)-1-(4-benzoyl-6-oxo-hexahydro-pyrrolo[3,2-b]pyrrole-1-carbonyl)-3-methyl-butyl]-amide] | 1 to 5000
3 | CC(C)C[C@H](NC(=O)c1ccc(N(C)C)cc1)C(=O)N1CC[C@@H]2[C@H]1C(=O)CN2C(=O)CN(C)C [Example 227, (3aR,6aS)-4-Dimethylamino-N-{(1S)-1-[4-(2-dimethylamino-acetyl)-6-oxo-hexahydro-pyrrolo[3,2-b]pyrrole-1-carbonyl]-3-methyl-butyl}-benzamide] | 1 to 5000
4 | CC(C)C[C@H](NC(=O)c1ccc(C(C)(C)C)cc1)C(=O)N1CC[C@@H]2[C@H]1C(=O)CN2C(=O)Cc1ccccc1 [Example 3, (3aR,6aS)-4-tert-Butyl-N-[(1S)-3-methyl-1-(6-oxo-4-phenylacetyl-hexahydro-pyrrolo[3,2-b]pyrrole-1-carbonyl)-butyl]-benzamide] | 1 to 5000
5 | CC(C)C[C@H](NC(=O)c1cccc(Oc2ccccc2)c1)C(=O)N1CC[C@@H]2[C@H]1C(=O)CN2C(=O)c1ccccc1 [Example 13, (3aR,6aS)-N-[(1S)-1-(4-Benzoyl-6-oxo-hexahydro-pyrrolo[3,2-b]pyrrole-1-carbonyl)-3-methyl-butyl]-3-phenoxy-benzamide] | 1 to 5000
6 | COC(=O)NCC(=O)N1CC(=O)[C@@H]2[C@H]1CCN2C(=O)[C@H](CC(C)C)NC(=O)c1ccc(N(C)C)cc1 [Example 183, (3aS,6aR)-(2-{4-[(2S)-2-(4-Dimethylamino-benzoylamino)-4-methyl-pentanoyl]-3-oxo-hexahydro-pyrrolo[3,2-b]pyrrole-1-yl}-2-oxo-ethyl)-carbamic acid methyl ester] | 1 to 5000
7 | CC(C)C[C@H](NC(=O)c1ccc(N(C)C)cc1)C(=O)N1CC[C@@H]2[C@H]1C(=O)CN2C(=O)[C@@H](N)[C@H](C)O [Example 208, (3aR,6aS)-N-{(1S)-1-[4-((2S,3S)-2-Amino-3-hydroxy-butyryl)-6-oxo-hexahydro-pyrrolo[3,2-b]pyrrole-1-carbonyl]-3-methyl-butyl}-4-dimethylamino-benzamide] | 1 to 5000
8 | CC(C)C[C@H](NC(=O)c1ccc(N(C)C)cc1)C(=O)N1CC[C@@H]2[C@H]1C(=O)CN2C(=O)c1ccc(Oc2ccccc2)cc1 [Example 56, (3aR,6aS)-4-Dimethylamino-N-{(1S)-3-methyl-1-[6-oxo-4-(4-phenoxy-benzoyl)-hexahydro-pyrrolo[3,2-b]pyrrole-1-carbonyl]-butyl}-benzamide] | 1 to 5000
9 | CC(C)C[C@H](NC(=O)c1ccc(C(C)(C)C)cc1)C(=O)N1CC[C@@H]2[C@H]1C(=O)CN2C(=O)c1ccc2ccccc2c1 [Example 34, (3aR,6aS)-4-tert-Butyl-N-{(1S)-3-methyl-1-[4-(naphthalene-2-carbonyl)-6-oxo-hexahydro-pyrrolo[3,2-b]pyrrole-1-carbonyl]-butyl}-benzamide] | 1 to 5000
10 | CC(C)C[C@H](NC(=O)c1cnc2ccccc2n1)C(=O)N1CC[C@@H]2[C@H]1C(=O)CN2C(=O)c1ccccc1 [Example 12, (3aR,6aS)-Quinoxaline-2-carboxylic acid [(1S)-1-(4-benzoyl-6-oxo-hexahydro-pyrrolo[3,2-b]pyrrole-1-carbonyl)-3-methyl-butyl]-amide] | 1 to 5000
